Reference: paper PMC10009167
Results are given in words; binding and its absence hold for the method and conditions named. Binding seen in cells or lysates may run through a third protein. Some results given as binding are weak or reduced against the parent protein; the word gives no strength.

Target: T1, SYP41 (Syntaxin of Plants 41) (Arabidopsis thaliana (endogenous in leaves)) (UniProt O65359)
T1 sequence: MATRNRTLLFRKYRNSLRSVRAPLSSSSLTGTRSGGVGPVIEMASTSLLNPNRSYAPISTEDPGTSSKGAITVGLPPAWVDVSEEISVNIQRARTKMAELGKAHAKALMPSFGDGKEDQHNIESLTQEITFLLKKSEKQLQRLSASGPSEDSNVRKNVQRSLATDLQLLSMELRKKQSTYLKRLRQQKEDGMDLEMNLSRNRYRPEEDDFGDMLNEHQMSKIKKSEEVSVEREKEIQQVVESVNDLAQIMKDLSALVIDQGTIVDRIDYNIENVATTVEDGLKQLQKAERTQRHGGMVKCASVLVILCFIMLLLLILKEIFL
Assay: co-IP; SYP41 immunoprecipitated with anti-SYP41 antibodies (1:200) and protein A Sepharose from 0.5% Triton X-100-solubilized extracts of leaves of 4- to 6-week-old WT or vps45-3 Arabidopsis plants, 4°C; washed with PBS with 0.1% Triton X-100; eluates immunoblotted for VPS45, SYP41, SYP61

B1: Arabidopsis thaliana VPS45 (Vacuolar Protein Sorting 45), wild type (protein, UniProt O49048 1-569)
chain: MVLVTSVRDYINRMLQDISGMKVLILDSETVSNVSIVYSQSELLQKEVFLVEMIDSISVSKESMSHLKAVYFIRPTSDNIQKLRYQLANPRFGEYHLFFSNLLKDTQIHILADSDEQEVVQQVQEYYADFVSGDPYHFTLNMASNHLYMIPAVVDPSGLQRFSDRVVDGIAAVFLALKRRPVIRYQRTSDTAKRIAHETAKLMYQHESALFDFRRTESSPLLLVIDRRDDPVTPLLNQWTYQAMVHELIGLQDNKVDLKSIGSLPKDQQVEVVLSSEQDAFFKSNMYENFGDIGMNIKRMVDDFQQVAKSNQNIQTVEDMARFVDNYPEYKKMQGNVSKHVTLVTEMSKLVEARKLMTVSQTEQDLACNGGQGAAYEAVTDLLNNESVSDIDRLRLVMLYALRYEKENPVQLMQLFNKLASRSPKYKPGLVQFLLKQAGVEKRTGDLFGNRDLLNIARNMARGLKGVENVYTQHQPLLFQTMESITRGRLRDVDYPFVGDHFQQGRPQEVVIFMVGGTTYEESRSVALQNATNSGVRFILGGTAVLNSKRFLKDLEEAQRISRSGSHMV
Q: How did the binding turn out when B1 was run?
A: binds

B2: VPS45-3 protein (VPS45 with serine 284-to-phenylalanine substitution) (protein, UniProt O49048 1-569)
chain: MVLVTSVRDYINRMLQDISGMKVLILDSETVSNVSIVYSQSELLQKEVFLVEMIDSISVSKESMSHLKAVYFIRPTSDNIQKLRYQLANPRFGEYHLFFSNLLKDTQIHILADSDEQEVVQQVQEYYADFVSGDPYHFTLNMASNHLYMIPAVVDPSGLQRFSDRVVDGIAAVFLALKRRPVIRYQRTSDTAKRIAHETAKLMYQHESALFDFRRTESSPLLLVIDRRDDPVTPLLNQWTYQAMVHELIGLQDNKVDLKSIGSLPKDQQVEVVLSSEQDAFFKFNMYENFGDIGMNIKRMVDDFQQVAKSNQNIQTVEDMARFVDNYPEYKKMQGNVSKHVTLVTEMSKLVEARKLMTVSQTEQDLACNGGQGAAYEAVTDLLNNESVSDIDRLRLVMLYALRYEKENPVQLMQLFNKLASRSPKYKPGLVQFLLKQAGVEKRTGDLFGNRDLLNIARNMARGLKGVENVYTQHQPLLFQTMESITRGRLRDVDYPFVGDHFQQGRPQEVVIFMVGGTTYEESRSVALQNATNSGVRFILGGTAVLNSKRFLKDLEEAQRISRSGSHMV
Q: Which binding does the source give for B2 here?
A: binds

B3: SYP61 (Syntaxin of Plants 61) (protein, UniProt Q946Y7 1-245)
chain: MSSAQDPFYIVKEEIQDSIDKLQSTFHKWERISPDMGDQAHVAKELVATCGSIEWQVDELEKAITVAAKDPSWYGIDEAELEKRRRWTSNARTQVRNVKSGVLAGKVSSGAGHASEVRRELMRMPNSGEASRYDQYGGRDDDGFVQSESDRQMLLIKQQDEELDELSKSVQRIGGVGLTIHDELVAQERIIDELDTEMDSTKNRLEFVQKKVGMVMKKAGAKGQMMMICFLLVLFIILFVLVFLT
Q: With B3 as the binder, how does the binding read?
A: binds
